# Results are given in words; binding and its absence hold for the method and conditions named.
# B1: IndC (enzyme, UniProt K4MP98 1-1377)
# chain: MSVETIPCSRRAALGLPGLLRERARATPDRTAAVHEHQSLTFAQLTEDSSHVGALLRQAGVGRDSRVGVFMEPSLDLLTGVWGILWAGGCYVPLSPEYPEERIAYMLADAGVDIVLTQEFLRSTLQELAPAGVVVLTLDEMLRTAERDGSAFGRPEPEVRPDDLAYVIYTSGSTGKPKGVMVEHRSIVSQMRWLHDECGIDENEIILQKTPMSFDAAQWELLALACGSTVVMGSSGIYRDPEAIISTVQRHGVTTLQCVPTLLQALLDTEKFPDCGTLRRIFSGGEALSRSLAAQCLDTMPGARLVNLYGPTECTINASSFVVDRAALEDGPLVMPIGTPVHDTSLHVLRPDGAPVSAGEIGELYIGGVQVARGYLGRPDLTGDRFMADPFSDAPGSRLYRTGDLAHVNADGTVQFVGRADNQVKLRGYRVELDEIRQTVETHDWVRAAAVLLRDDATTGFQNLVAFVELNPKEAALMDQGNHGSHHQSKASRLQVRAQLAHPGCRDDADLAGRAAIDLPGAEATPGQRALAFSRKTYRFYEGSPVTRDDILHLLGPRPRPRPSARTSDIVGRDELGTILRNFGRHLSDQRLLPKYAYASPGSLYATQLYVEIGGGHDVPAGLYYYHPLHHRLVLVGPASETETSPVRIHFLGKHGAIEPVYRNNVREVLEIEAGHMVGLFEEVLPAHGLRIAAAAYQPAVRHRLDCAPEDHYLGSFDLLPQARGASEDTDTLDIYVQAHSTRIEGLPPGQYRYTGAGLVRIGDDVILKKHVIAINQRVYERSDFGISLVATGSASWRRYLDLGRGLQRLQMNDLHLGFMSSGYSSKSGNDLPSAKRLGRILADGGLPAGPSYFCVGGRVSDAQWRGEDMKEDVVHMQGPAELIKEDLAALLPRYMLPNRIVVLDRLPQTANGKIDLKALQTTQEAQLTVGERAFMAPRTPLERRIRDIWQAVLKRDQVSVTDDFFELGGNSLLAVALVSRLNADFGGAIPLQILFEAPTVERLAAALEATSPRPASRLVPLQPEGRGTPLYCWPGLGGYPMNLRPLAAALGTERPVHGVQAHGINPGEFPYDDVRAMAAADVEAIREIQPHGPYLLCGYSFGARVAFEAARQLEQAGEQVEQLFLVAPGQPRLRPEDAVGATGRADFTDRAFLALLFSVFAGTLSGPRLDQCLRTVTDEDGFVAFVTASFPGLGEELVRAVTGIVRRTYSLTYEFHELRGRRLDAPVTLVRATDDNYSFIEHEGGYSARPPAVHQLRSGHYELLREPHVARLAAVLNDRLSAGPSTSPRHSQPAQATVQEVGVPHINIKHFPVSITEEKELELVAAVTTAVRNAFGCTEEVVSIALEPVAQEVWNERVYIPEIVARQELLRKTPNY
# Molecular target: IndC (Streptomyces chromofuscus) (UniProt K4MP98)
# Experiment: SEC; gel filtration of the purified embedded BmdB–BmdC constructs and of IndC, each alone (Fig. 5d); both purified
binder,measurement,value
B1,binding,no binding
